Laboratory results from the supplement of paper PMC10060354, “Discovery of a small molecule ligand of FRS2 that inhibits invasion and tumor growth” (Cellular Oncology, 2022).
Many values rest on one well or one pass, so single values are uncertain.

Amino acid sequences for entries named in this document (tags omitted). A change or cut given only in a name is not applied to a line headed by its entry.
UniProt Q96BR5: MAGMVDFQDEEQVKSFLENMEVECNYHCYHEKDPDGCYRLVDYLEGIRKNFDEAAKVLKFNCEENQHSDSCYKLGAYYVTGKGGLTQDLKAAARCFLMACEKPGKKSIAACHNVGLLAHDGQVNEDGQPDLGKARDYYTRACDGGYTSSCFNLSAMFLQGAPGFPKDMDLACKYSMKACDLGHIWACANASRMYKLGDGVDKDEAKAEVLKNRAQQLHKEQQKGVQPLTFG
UniProt Q8N4U5: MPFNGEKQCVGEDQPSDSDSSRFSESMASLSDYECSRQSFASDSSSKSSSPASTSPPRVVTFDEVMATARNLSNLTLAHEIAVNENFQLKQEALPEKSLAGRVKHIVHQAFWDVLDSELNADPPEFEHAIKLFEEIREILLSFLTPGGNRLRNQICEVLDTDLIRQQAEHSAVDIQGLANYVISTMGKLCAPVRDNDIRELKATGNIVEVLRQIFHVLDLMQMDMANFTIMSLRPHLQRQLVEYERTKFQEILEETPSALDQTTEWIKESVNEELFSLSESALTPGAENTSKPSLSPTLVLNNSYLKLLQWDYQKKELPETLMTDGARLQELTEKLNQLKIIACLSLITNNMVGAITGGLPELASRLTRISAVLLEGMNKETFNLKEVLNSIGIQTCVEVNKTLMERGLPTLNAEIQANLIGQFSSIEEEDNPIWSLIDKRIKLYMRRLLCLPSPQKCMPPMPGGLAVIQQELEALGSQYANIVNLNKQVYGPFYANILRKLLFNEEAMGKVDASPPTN
UniProt Q9BR76, whole entry: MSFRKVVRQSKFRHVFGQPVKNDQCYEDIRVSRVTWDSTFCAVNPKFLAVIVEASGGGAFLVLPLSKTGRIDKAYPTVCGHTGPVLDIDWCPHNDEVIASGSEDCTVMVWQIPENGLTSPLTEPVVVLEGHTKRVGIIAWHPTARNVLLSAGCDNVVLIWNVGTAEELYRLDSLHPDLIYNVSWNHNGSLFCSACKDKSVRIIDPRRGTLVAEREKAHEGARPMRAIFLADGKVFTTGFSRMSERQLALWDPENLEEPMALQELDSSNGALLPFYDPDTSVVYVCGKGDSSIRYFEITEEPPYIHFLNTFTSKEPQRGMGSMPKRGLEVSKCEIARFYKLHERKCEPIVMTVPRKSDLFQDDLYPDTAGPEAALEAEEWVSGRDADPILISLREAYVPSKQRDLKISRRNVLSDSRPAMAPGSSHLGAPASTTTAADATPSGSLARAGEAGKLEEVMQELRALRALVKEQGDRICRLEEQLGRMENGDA
UniProt O95777: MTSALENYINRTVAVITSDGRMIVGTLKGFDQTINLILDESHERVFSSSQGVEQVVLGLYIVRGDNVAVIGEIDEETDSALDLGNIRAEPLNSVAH
UniProt P31939: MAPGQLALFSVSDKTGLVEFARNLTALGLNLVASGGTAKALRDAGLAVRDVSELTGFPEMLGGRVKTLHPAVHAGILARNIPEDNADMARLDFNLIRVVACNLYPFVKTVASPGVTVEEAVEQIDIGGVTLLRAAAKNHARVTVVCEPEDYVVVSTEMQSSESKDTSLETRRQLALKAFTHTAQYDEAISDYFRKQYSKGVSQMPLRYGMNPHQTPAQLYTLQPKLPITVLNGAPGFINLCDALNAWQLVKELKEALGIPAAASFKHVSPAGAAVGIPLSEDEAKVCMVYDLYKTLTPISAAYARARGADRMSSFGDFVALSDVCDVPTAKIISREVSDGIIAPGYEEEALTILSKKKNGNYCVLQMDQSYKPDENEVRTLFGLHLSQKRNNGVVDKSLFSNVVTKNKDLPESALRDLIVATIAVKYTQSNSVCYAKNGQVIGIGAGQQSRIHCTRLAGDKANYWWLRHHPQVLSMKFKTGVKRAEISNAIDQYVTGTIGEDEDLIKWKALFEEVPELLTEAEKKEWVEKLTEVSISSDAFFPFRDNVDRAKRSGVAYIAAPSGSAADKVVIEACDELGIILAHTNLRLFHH
UniProt O95433, whole entry: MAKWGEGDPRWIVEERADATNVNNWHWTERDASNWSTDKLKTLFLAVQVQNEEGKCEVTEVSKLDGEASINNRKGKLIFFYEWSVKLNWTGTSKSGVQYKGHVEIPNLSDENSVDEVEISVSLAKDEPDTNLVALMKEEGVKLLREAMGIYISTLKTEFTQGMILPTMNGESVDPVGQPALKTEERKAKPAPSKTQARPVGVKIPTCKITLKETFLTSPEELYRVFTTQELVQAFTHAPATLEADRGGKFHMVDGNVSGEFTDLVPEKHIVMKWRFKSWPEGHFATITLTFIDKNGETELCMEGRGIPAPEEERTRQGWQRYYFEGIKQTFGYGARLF
UniProt O43482, whole entry: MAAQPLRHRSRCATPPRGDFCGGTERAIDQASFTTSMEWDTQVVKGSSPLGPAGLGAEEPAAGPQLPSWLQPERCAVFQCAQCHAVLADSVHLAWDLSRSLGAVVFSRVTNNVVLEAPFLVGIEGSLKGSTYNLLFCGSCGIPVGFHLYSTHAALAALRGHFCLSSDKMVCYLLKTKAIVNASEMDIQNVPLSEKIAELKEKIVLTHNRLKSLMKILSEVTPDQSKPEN
UniProt Q9UHD1: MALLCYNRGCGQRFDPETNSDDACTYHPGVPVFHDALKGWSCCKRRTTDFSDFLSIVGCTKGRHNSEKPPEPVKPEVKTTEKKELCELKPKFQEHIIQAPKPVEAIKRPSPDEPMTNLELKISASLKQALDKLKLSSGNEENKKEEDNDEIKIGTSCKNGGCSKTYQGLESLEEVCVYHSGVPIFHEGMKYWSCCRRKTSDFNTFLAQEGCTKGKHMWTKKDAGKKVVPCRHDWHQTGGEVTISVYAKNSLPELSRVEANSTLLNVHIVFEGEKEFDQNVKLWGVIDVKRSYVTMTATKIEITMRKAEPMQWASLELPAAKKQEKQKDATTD
UniProt P42773: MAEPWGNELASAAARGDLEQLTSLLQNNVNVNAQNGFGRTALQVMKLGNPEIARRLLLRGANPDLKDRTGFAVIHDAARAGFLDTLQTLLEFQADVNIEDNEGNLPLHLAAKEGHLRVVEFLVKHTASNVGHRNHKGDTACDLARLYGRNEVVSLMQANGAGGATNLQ
UniProt Q9UKW4: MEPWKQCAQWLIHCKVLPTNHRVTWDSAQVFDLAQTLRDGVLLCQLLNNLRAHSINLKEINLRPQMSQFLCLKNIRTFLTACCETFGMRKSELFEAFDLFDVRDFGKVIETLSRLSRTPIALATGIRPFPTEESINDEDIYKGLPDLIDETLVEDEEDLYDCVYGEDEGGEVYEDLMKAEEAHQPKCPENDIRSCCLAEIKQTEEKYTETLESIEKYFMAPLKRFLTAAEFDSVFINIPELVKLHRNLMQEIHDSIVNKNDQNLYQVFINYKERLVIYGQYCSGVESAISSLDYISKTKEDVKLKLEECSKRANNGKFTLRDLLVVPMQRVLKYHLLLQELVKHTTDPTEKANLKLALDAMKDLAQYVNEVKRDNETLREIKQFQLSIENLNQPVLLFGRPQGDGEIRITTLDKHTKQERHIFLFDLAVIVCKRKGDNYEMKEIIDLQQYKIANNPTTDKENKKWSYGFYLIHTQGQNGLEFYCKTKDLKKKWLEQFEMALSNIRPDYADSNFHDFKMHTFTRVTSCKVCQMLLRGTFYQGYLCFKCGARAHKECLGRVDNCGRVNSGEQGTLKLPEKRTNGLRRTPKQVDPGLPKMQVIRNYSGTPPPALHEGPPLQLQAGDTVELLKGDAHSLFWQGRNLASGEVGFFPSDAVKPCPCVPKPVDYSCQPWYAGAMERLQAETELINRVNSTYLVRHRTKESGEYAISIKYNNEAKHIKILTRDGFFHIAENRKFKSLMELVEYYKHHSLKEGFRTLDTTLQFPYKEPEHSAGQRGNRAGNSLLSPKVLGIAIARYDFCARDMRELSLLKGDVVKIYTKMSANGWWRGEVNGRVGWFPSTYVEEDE
UniProt O15405: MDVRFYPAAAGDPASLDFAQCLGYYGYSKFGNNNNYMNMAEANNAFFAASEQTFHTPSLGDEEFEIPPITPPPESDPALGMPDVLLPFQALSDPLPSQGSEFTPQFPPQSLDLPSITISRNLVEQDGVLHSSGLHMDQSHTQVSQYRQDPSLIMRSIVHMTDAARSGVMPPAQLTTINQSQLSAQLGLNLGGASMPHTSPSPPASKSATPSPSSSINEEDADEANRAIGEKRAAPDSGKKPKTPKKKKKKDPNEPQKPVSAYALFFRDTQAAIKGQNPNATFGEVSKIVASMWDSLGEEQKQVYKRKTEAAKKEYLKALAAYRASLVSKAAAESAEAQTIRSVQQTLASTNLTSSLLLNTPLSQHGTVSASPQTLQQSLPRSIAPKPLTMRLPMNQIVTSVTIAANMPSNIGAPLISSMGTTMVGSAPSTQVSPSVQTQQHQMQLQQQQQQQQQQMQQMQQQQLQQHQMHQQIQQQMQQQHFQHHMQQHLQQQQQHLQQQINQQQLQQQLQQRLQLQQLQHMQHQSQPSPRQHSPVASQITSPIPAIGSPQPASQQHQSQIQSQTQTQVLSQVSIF
UniProt Q5M775: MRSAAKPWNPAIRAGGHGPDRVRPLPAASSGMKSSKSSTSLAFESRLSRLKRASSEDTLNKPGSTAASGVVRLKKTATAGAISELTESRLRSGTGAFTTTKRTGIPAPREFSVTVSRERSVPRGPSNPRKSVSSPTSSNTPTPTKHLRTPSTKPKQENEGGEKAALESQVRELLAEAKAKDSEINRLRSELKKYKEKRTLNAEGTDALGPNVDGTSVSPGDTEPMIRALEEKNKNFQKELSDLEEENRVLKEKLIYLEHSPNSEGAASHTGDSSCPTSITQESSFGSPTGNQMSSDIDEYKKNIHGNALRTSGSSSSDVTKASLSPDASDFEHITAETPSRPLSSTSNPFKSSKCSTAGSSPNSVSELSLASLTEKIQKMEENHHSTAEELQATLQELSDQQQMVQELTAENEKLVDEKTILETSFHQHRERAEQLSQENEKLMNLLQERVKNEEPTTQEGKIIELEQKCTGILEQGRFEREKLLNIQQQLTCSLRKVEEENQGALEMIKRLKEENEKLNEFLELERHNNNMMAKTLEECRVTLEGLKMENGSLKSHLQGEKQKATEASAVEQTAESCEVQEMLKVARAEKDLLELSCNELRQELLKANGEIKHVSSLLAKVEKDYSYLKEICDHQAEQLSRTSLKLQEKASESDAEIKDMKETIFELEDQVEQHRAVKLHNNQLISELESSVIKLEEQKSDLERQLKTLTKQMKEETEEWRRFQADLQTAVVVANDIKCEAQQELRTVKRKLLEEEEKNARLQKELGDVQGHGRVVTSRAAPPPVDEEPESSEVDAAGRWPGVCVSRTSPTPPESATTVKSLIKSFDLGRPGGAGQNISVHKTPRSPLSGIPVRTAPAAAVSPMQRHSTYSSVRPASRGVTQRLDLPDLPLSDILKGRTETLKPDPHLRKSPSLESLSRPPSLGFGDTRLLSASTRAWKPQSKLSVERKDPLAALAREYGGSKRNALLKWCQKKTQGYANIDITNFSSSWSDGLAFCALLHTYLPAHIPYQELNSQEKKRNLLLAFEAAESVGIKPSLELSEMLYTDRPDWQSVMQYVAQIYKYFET
UniProt P62877, whole entry, looked up: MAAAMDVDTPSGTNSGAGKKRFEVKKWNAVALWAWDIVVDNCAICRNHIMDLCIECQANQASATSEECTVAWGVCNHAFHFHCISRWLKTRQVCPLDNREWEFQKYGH
UniProt Q12907: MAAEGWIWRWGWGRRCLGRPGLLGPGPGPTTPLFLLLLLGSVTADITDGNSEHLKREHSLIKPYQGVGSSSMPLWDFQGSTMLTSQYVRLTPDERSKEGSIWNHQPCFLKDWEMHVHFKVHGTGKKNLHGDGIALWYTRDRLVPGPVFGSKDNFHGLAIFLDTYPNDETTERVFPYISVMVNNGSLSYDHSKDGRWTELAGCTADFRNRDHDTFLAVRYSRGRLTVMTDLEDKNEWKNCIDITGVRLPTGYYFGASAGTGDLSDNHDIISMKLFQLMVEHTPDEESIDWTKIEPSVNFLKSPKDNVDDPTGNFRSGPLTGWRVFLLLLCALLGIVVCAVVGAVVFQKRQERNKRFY
UniProt Q96BP3: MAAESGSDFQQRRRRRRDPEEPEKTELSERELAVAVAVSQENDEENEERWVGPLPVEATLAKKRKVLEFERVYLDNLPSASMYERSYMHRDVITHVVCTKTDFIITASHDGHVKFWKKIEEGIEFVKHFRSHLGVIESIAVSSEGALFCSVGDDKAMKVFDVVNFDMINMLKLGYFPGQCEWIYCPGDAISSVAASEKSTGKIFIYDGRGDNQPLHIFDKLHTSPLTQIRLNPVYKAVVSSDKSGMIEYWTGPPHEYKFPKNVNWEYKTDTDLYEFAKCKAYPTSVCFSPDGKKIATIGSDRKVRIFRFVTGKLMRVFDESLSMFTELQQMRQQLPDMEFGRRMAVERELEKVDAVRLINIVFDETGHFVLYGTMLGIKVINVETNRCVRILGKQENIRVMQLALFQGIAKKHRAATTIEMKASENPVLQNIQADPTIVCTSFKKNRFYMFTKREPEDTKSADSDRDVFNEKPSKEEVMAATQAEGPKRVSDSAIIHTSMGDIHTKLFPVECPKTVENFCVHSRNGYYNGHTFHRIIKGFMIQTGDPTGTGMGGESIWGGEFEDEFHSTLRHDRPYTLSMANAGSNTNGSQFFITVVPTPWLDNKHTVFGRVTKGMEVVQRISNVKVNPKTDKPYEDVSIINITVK

Compound: [O-][N+](C(C1=C(C(O)=C2)NC(C(C=C3)=CC=C3Cl)C4C1C=CC4)=C2Cl)=O
Experiment: melting temperature shift (compound 7 minus DMSO); higher = compound stabilises the protein
Details: 10 µM
Description: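 Thermal proteome profiling (TMT mass spectrometry) in intact DAOY medulloblastoma cells or DAOY lysates treated with 10 µM compound 7 or DMSO, heated at 10 temperatures from 40.5 to 73.8 °C for 3 min. Melting curves were fitted with the Bioconductor TPP package, and the melting point difference between compound and vehicle is reported per protein (single curve per condition).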

[1] = system: DAOY cell lysate, treatment time: 20 min, 4 °C
[2] = system: intact DAOY cells, treatment time: 90 min, 37 °C

| Target | melting temperature shift [1] | melting temperature shift [2] |
| --- | --- | --- |
| TTC19 (UniProt Q6DKK2) | -1.08 °C | -1.83 °C |
| PWP1 (UniProt Q13610) | 1.39 °C | 1.93 °C |
| PARD3 (UniProt Q8TEW0) | -1.51 °C |  |
| UniProt Q15019 | -1.14 °C | 0.331 °C |
| COA7 (UniProt Q96BR5) | 0.394 °C | -1.11 °C |
| DCP1A (UniProt Q9NPI6) | -1.43 °C | 1.55 °C |
| FANCD2 (UniProt Q9BXW9) | -0.594 °C | 1.2 °C |
| CMPK1 (UniProt P30085) | -0.532 °C | -0.833 °C |
| GNL3L (UniProt Q9NVN8) | -0.553 °C |  |
| UniProt Q14728 | 1.97 °C | 0.843 °C |
| CISD2 (UniProt Q8N5K1) | 3.55 °C |  |
| C12ORF45 (UniProt Q8N5I9) | -0.849 °C |  |
| UniProt Q8N4U5 |  | -0.834 °C |
| WDR45 (UniProt Q9Y484) | 0.575 °C |  |
| TIMM21 (UniProt Q9BVV7) | 3.84 °C | 0.0812 °C |
| UniProt Q96CX6 | -0.0557 °C | 1.35 °C |
| CORO1B (UniProt Q9BR76) | 0.161 °C | 0.535 °C |
| UniProt Q9P1U1 |  | 0.116 °C |
| UniProt Q96L14 |  | 1.27 °C |
| LSM8 (UniProt O95777) | -0.732 °C | -2.77 °C |

| Target | melting temperature shift [1] | melting temperature shift [2] |
| --- | --- | --- |
| UniProt P29803 |  | -0.703 °C |
| ANKLE2 (UniProt Q86XL3) | 0.685 °C | -0.0517 °C |
| ATIC (UniProt P31939) | -0.346 °C | -1.03 °C |
| EIF4A1 (UniProt P60842) | -0.488 °C | -0.0876 °C |
| WDR41 (UniProt Q9HAD4) | -0.552 °C | -0.321 °C |
| CPSF1 (UniProt Q10570) | -0.372 °C | 0.398 °C |
| UniProt O60673 | -2.42 °C |  |
| TTC13 (UniProt Q8NBP0) |  | -2.66 °C |
| UniProt Q8IXK0 | -0.649 °C |  |
| LMBRD1 (UniProt Q9NUN5) | 3.8 °C |  |
| AHSA1 (UniProt O95433) | -0.591 °C | 0.0615 °C |
| CYCS (UniProt P99999) | -0.236 °C | -4.74 °C |
| UniProt P31146 | -0.657 °C | 0.169 °C |
| UniProt Q58FF3 |  | 0.769 °C |
| UniProt O43482 | -0.421 °C |  |
| UniProt P57721 |  | -0.76 °C |
| PHF5A (UniProt Q7RTV0) | 0.447 °C |  |
| CHORDC1 (UniProt Q9UHD1) | -0.242 °C | 0.0505 °C |
| LIMS1 (UniProt P48059) | -1.26 °C | 0.0868 °C |
| HIST1H1B (UniProt P16401) | 1.42 °C | -1.27 °C |

| Target | melting temperature shift [1] | melting temperature shift [2] |
| --- | --- | --- |
| SNTB2 (UniProt Q13425) | 0.862 °C | -0.0749 °C |
| TOR1A (UniProt O14656) | 0.425 °C | -0.684 °C |
| DNASE2 (UniProt O00115) | -4.03 °C |  |
| UniProt P42773 | 0.804 °C |  |
| DPAGT1 (UniProt Q9H3H5) |  | 0.00624 °C |
| EPHB3 (UniProt P54753) |  | -0.67 °C |
| XPNPEP3 (UniProt Q9NQH7) | -1.05 °C | -0.0589 °C |
| UniProt Q9UKW4 |  | -3.65 °C |
| UniProt O15405 |  | -0.972 °C |
| SPECC1 (UniProt Q5M775) | 0.903 °C | 0.246 °C |
| SETD1A (UniProt O15047) | -0.834 °C |  |
| RBX1 (UniProt P62877) | 0.0507 °C | -0.258 °C |
| RPL38 (UniProt P63173) | -0.442 °C | -0.908 °C |
| UniProt Q9NQ39 |  | -0.301 °C |
| LMAN2 (UniProt Q12907) | -0.103 °C | -1.07 °C |
| NELFA (UniProt Q9H3P2) | -0.311 °C | -3.27 °C |
| NDUFA9 (UniProt Q16795) | 1.39 °C | -0.847 °C |
| LNPEP (UniProt Q9UIQ6) | 0.644 °C | 0.376 °C |
| INTS4 (UniProt Q96HW7) | -0.217 °C | 1.7 °C |
| PPWD1 (UniProt Q96BP3) | 0.0244 °C | 1.19 °C |

Rewritten as labelled records: part of the list above.
UniProt Q9P1U1
  melting temperature shift [2]: 0.116 °C
UniProt Q96L14
  melting temperature shift [2]: 1.27 °C

Individual results from above.
DPAGT1 (UniProt Q9H3H5) | melting temperature shift [2]: 0.00624 °C
UniProt P42773 | melting temperature shift [1]: 0.804 °C
